Data as given in PubChem BioAssay AID1224830 (NIAID, 2016)

- Aim: 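Genes whose knock-down alters the TNF-alpha reporter response to LPS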 (primary screen)
- Cells: human THP-1 monocytic leukaemia cells, TNF dual-luciferase reporter clone, PMA-differentiated to macrophage-like cells
- Reagent: siRNA pool against human genes, 50 nM
- Duration: LPS for 4 h, given about 3 days after siRNA transfection
- Conditions: bacterial LPS (TLR4 ligand), 10 ng/ml
- Measurement: 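Ratio of firefly to renilla light, scaled to the plate median and expressed as a robust z-score per replicate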
- Direction: TNF reporter robust z-score: higher = stronger TNF reporter response to LPS
- Active means: 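a well is active when its z-score exceeds 2.8 or falls below -1.5; control wells carry no call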
Here is a random part of about 18,000 deposited reagents. About 2,900 of all reagents (16%) were called active. 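Calls are made per well; low scores hint the gene aids the LPS response, high scores that it dampens it.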 Entries without a mark were called inactive. Repeated entries: four replicate wells of each siRNA pool.

gene symbol,TNF reporter robust z-score
WFIKKN2,2.97 (active)
WFIKKN2,0.25
WFIKKN2,1.11
WFIKKN2,0.31
RPP38,0.79
RPP38,0.97
RPP38,2.02
RPP38,1.02
SPATA6L,-0.05
SPATA6L,0.68
SPATA6L,0.87
SPATA6L,-0.16
DHX29,-1.12
DHX29,0.27
DHX29,0.06
DHX29,0.43
ZNF704,-0.76
ZNF704,-0.33
ZNF704,-0.17
ZNF704,1
GALNT3,-0.35
GALNT3,-0.01
GALNT3,-0.45
GALNT3,-0.7
SEPTIN2,0.2
SEPTIN2,0.14
SEPTIN2,-0.03
SEPTIN2,0.76
LILRB3,2.23
LILRB3,1.35
LILRB3,-0.07
LILRB3,-0.04
LINC02875,-0.74
LINC02875,-0.52
LINC02875,-0.72
LINC02875,-0.78
PPP1R14D,-0.72
PPP1R14D,-0.71
PPP1R14D,-1.16
PPP1R14D,0.54
CMYA5,0.56
CMYA5,0.09
CMYA5,-0.65
CMYA5,0.47
DNAJC13,0.84
DNAJC13,0.58
DNAJC13,0.63
DNAJC13,0.98

4 of these entries, reformatted.
gene symbol | TNF reporter robust z-score
RPP38 | 1.02
SPATA6L | -0.05
SPATA6L | 0.68
SPATA6L | 0.87
